# From PubChem BioAssay AID720504 (National Center for Advancing Translational Sciences (NCATS), 2013)
# Sequences of proteins named here, by UniProt entry; tags and fusion partners are left off.
# UniProt P53350, whole entry, looked up: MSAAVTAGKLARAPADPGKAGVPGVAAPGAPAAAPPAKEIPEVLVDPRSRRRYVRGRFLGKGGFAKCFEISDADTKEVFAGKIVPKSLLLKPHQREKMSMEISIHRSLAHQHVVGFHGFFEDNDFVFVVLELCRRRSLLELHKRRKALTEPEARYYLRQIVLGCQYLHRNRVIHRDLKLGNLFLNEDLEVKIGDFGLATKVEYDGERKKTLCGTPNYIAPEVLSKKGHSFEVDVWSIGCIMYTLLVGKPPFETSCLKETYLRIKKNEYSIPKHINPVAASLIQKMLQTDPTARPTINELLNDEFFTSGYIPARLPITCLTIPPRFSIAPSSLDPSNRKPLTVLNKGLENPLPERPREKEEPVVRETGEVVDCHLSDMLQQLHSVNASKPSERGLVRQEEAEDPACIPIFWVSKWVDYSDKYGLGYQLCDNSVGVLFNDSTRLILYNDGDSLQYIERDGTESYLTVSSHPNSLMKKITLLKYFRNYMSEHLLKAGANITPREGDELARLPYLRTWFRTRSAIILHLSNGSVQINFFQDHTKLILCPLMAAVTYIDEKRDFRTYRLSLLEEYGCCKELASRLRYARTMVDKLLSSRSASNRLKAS
# Among all 360,000 compounds or so, about 10,000 (2.8%) were called active. Inconclusive means that the source gave no clear call. Such entries were picked first, then a sample of the others. Calls come from the whole dose curve; as a rule, active = well fitted inhibition curve with a large enough effect; inconclusive = small, poorly fitted or top-dose-only effect; inactive = flat fitted curve, though single readings scatter. Where the call is inconclusive, the potency comes from a doubtful curve fit.
# Biological target: Serine/threonine-protein kinase PLK1 (Homo sapiens) (UniProt P53350)
# Assay: qHTS for Inhibitors of PLK1-PDB (polo-like kinase 1 - polo-box domain): Primary Screen; note: nearly all actives have a fitted effect of over 65% in size; for max response, negative = inhibition: series mostly up to about 57 µM
# Conditions: Plk1 PBD binding of FITC phosphopeptide, fluorescence polarization
# % is set by controls: 0 for no effect and ±100 for the full control effect; potency is the fitted concentration of half-maximal effect.
SMILES,Potency,"max response, negative = inhibition"
CC(C)CCNC(=O)C1CCN(c2nc3ccccc3o2)CC1,"inconclusive: 37.7 µM [inhibitor, single point]",
c1ccc(CCn2nnnc2CN2CCCc3ccccc32)cc1,active: 13.4 µM,
Cc1ccc(NC(=S)N(CCN(C)C)Cc2cccs2)c(C)c1,active: 8.44 µM,
S=c1[nH]nc(CCCc2n[nH]c(=S)o2)o1,active: 21.2 µM,
Fc1ccccc1OCCn1c(=S)[nH]c2ccccc21,"inconclusive: 29.9 µM [inhibitor, single point]",
CCOC(=O)C1=C(CSc2nc(CC)c(C)cc2C#N)OC(N)=C(C#N)C1c1ccc(OC)cc1 (stereo not drawn),"inconclusive: 18.9 µM [inhibitor, partial curve]",
Cc1ccc2c(c1)cc(CN(Cc1cccs1)C(=O)c1ccco1)c1nnnn12,active: 8.44 µM,
CCOc1ccc(NC2=NCC(=O)N2CCc2ccccc2)cc1,,inactive: -1.5%
CC(=O)c1ccc(N2CCN(C(=O)Cn3cnc(S(=O)(=O)N4CCCCC4)c3)CC2)cc1,active: 26.7 µM,
O=C(c1ccccc1)N1CCn2c1nc1ccccc12,active: 26.7 µM,
COc1ccccc1CNC(=O)CSC1=NCCS1,"inconclusive: 16.8 µM [inhibitor, partial curve]",
O=C(Oc1ccc(-c2cn3c(n2)SCC3)cc1)c1ccccc1,"inconclusive: 26.7 µM [inhibitor, partial curve]",
O=C(N/N=C/c1ccc(N2CCOCC2)s1)c1ccc(O)cc1,,inactive: 0.914%
Cc1c(CCC(=O)O)c(=O)oc2cc3occ(-c4ccc(Br)cc4)c3cc12,"inconclusive: 23.8 µM [inhibitor, single point]",
O=C1CC(=O)NC(SCC(=O)Nc2ccccc2[N+](=O)[O-])=N1,"inconclusive: 21.2 µM [inhibitor, partial curve]",
CN(N=Nc1ccc([N+](=O)[O-])cc1)c1ccccc1,"inconclusive: 8.44 µM [inhibitor, partial curve]",
O=C(c1ccccc1)N1CCCCC(Cl)C1=O (stereo not drawn),"inconclusive: 18.9 µM [inhibitor, partial curve]",
O=C(CC1S/C(=N/N=C/c2c[nH]c3ccc(OCc4ccccc4)cc23)NC1=O)Nc1ccccc1 (stereo not drawn),,inactive: -8.75%
CC(Sc1ccc2c(c1)OCCO2)C(=O)Nc1ncc(Cl)cc1Cl (stereo not drawn),"inconclusive: 21.2 µM [inhibitor, partial curve]",
Cc1ccccc1NP(=O)(c1ccccc1)c1nc2ccccc2s1 (stereo not drawn),"inconclusive: 37.7 µM [inhibitor, single point]",
CC1=C(C)C(=O)C(CCCCC#CCCCC#CCO)=C(C)C1=O,"inconclusive: 21.2 µM [inhibitor, partial curve]",
Cc1cc(C)c(/C=C(\C#N)C(N)=S)c(C)c1,,inactive: -6.17%
CCC1CN(C(=O)N2CCC(C(=O)NCCc3ccc(OC)cc3OC)CC2)c2ccccc2O1 (stereo not drawn),,inactive: -4.6%
CCOC(=O)Cc1csc(NC(=O)c2csc3c2CCCC3)n1,,inactive: -15.1%
O=C1CSC(c2cccnc2)N1Cc1cccnc1 (stereo not drawn),,inconclusive: -30.3% [inhibitor]

SMILES,Potency,"max response, negative = inhibition"
Cn1c(=O)[nH]c(=O)c2c1nc(SCCN1CCCCC1)n2CCCc1ccccc1,active: 2.38 µM,
COCCNC(=O)C(c1cccs1)N(C(=O)Cn1nnc2ccccc21)c1cccc(C)c1 (stereo not drawn),"inconclusive: 18.9 µM [inhibitor, partial curve]",
O=S(=O)(Cc1cc(Sc2ccccc2)nc(-c2ccccc2)n1)c1ccccc1,"inconclusive: 23.8 µM [inhibitor, single point]",
O=C(c1cncc(Br)c1)N1CCN(c2ccc([N+](=O)[O-])cc2)CC1,"inconclusive: 26.7 µM [inhibitor, partial curve]",
N#Cc1c(NC(=O)c2cccc(S(=O)(=O)Nc3ccc(C(=O)O)cc3)c2)sc2c1CCCC2,"inconclusive: 33.6 µM [inhibitor, single point]",
CCN1C(=O)[C@H]2[C@@H](c3ccc(C)cc3)N3C(=O)N(c4ccc(C)cc4)C(=O)[C@@]3(C)[C@H]2C1=O,,inactive: -4.3%
CC(C)C[C@H](NC(=O)C1CC(=O)N(c2ccc3c(c2)OCO3)C1)C(=O)NC1CCCC1 (stereo partly drawn),,inactive: -12.7%
CCOc1ccc(C(=O)Nc2ccc(S(=O)(=O)N3C[C@@H]4C[C@@H](C3)c3cccc(=O)n3C4)cc2)cc1,,inactive: 9.72%
O=C(Nc1nncs1)c1cccc(S(=O)(=O)N2CCc3ccccc32)c1,active: 3.36 µM,
C/C(=N\Nc1cc(C)nc(NCc2ccccc2)n1)c1cccc([N+](=O)[O-])c1,,inactive: 1.37%
CC1=C(CC(=O)c2ccc(Cl)cc2)C(=O)c2ccccc2C1=O,"inconclusive: 29.9 µM [inhibitor, single point]",
COc1ccc(CNC(=O)CSc2nnnn2-c2ccc(O)cc2)cc1,"inconclusive: 29.9 µM [inhibitor, single point]",
OC1(CC#CCN2CCCCC2)c2ccccc2-c2ccccc21,,inactive: -3.1%
Cc1nc2c(-c3ccc(F)cc3)cnn2c(N)c1-c1ccccc1,,inactive: -2.29%
CCc1nc(CN(C)C(=O)C2CCC(=O)N(CCc3cccc(F)c3)C2)no1 (stereo not drawn),,inactive: -10.5%
CN(C(=O)COC(=O)CSc1ccc([N+](=O)[O-])cc1)c1ccccc1,active: 13.4 µM,
CC1(C)OC2C(CO)OC(n3cnc4c(=S)nc[nH]c43)C2O1 (stereo not drawn),,inactive: -10.6%
Brc1ccc2nc(C3CCCCC3)c(CC3CCCCC3)n2c1,,inactive: 3.71%
CCCCOc1ccc(C(=O)Oc2cccnc2)cc1,,inactive: -6.18%
N#Cc1c(NC(=O)CSc2n[nH]c(N)n2)oc(-c2ccccc2)c1-c1ccccc1,"inconclusive: 23.8 µM [inhibitor, single point]",
CCOC(=O)N1CCN(C(=O)c2noc(C(C)C)c2[N+](=O)[O-])CC1,"inconclusive: 26.7 µM [inhibitor, single point]",
CN1CCN(C(=S)NC(=O)c2ccc(S(=O)(=O)N3CCOCC3)cc2)CC1,"inconclusive: 6.7 µM [inhibitor, full curve]",
CC(=O)N1CC(C)Sc2ccc(S(=O)(=O)NCCc3cccc(C)c3)cc21 (stereo not drawn),active: 11.9 µM,
O=C(NC1CCCCC1)C(c1ccc(-c2ccccc2)cc1)n1c(=O)c(-c2ccco2)nc2ccccc21 (stereo not drawn),"inconclusive: 10.6 µM [inhibitor, partial curve]",
O=C(CCc1ccccc1)Nc1nn[nH]n1,active: 26.7 µM,

# 3 compounds picked at random from those above, as already listed:
SMILES,Potency,"max response, negative = inhibition"
Fc1ccccc1OCCn1c(=S)[nH]c2ccccc21,"inconclusive: 29.9 µM [inhibitor, single point]",
O=C(N/N=C/c1ccc(N2CCOCC2)s1)c1ccc(O)cc1,,inactive: 0.914%
O=C1CSC(c2cccnc2)N1Cc1cccnc1 (stereo not drawn),,inconclusive: -30.3% [inhibitor]

# Later entries

SMILES,Potency,"max response, negative = inhibition"
CCOC(=O)C(C)Sc1ccc2nnc(-c3ccc(F)cc3)n2n1 (stereo not drawn),"inconclusive: 16.8 µM [inhibitor, single point]",
O=C(N/N=C/c1ccc(OC(=O)c2ccccc2)c([N+](=O)[O-])c1)c1ccc(O)cc1,"inconclusive: 11.9 µM [inhibitor, partial curve]",
CN=C1CC(SC)=C1c1ccc(C)cc1,"inconclusive: 21.2 µM [inhibitor, partial curve]",
COc1ccc(CCNC(=O)CSC(=O)c2ccccc2)cc1OC,active: 21.2 µM,
c1ccc2c(N3CCOCC3)nc(N3CCOCC3)nc2c1,,inconclusive: -31.3% [inhibitor]
CCCCNC(=O)c1onc(CSc2cccc(OC)c2)c1C(=O)NCCCC,"inconclusive: 23.8 µM [inhibitor, partial curve]",
O=C(NN=Cc1cc(Br)c(O)c(Br)c1)c1ccccc1NS(=O)(=O)c1cccs1,"inconclusive: 23.8 µM [inhibitor, partial curve]",
O=C(O)c1cccc(-c2ccc(/C=C3/SC(=Nc4ccccc4)N(Cc4cccnc4)C3=O)o2)c1,active: 23.8 µM,
CCOC(=O)CNC(c1ccccc1)c1cc(Br)ccc1NC(=O)CCN1CCOCC1 (stereo not drawn),"inconclusive: 9.47 µM [inhibitor, partial curve]",
COc1ccc(Nc2nc(NCc3ccco3)nc(N/N=C/c3ccc(O)cc3)n2)cc1,,inactive: -2.2%
COc1ccc(OC)c(NC(=S)N2CCN(Cc3ccccc3)CC2)c1,"inconclusive: 0.423 µM [inhibitor, partial curve, poor fit]",
N=C1/C(=C/c2ccc(OCc3ccccc3)cc2)C(=O)N=C2SC(CC(=O)N3CCOCC3)=NN12,"inconclusive: 21.2 µM [inhibitor, single point]",
Cc1nc(-c2ccccc2)sc1C(=O)CSc1ccc(Cl)cc1,"inconclusive: 29.9 µM [inhibitor, partial curve]",
CCN(CC)S(=O)(=O)c1ccc(N2CCCCC2)c(NC(=O)/C=C/c2ccc(OC)c(OC)c2)c1,,inactive: -0.329%
C/C(=N/NS(=O)(=O)c1ccc(C(C)C)cc1)c1ccncc1,"inconclusive: 21.2 µM [inhibitor, partial curve]",
CCC1CCCCN1S(=O)(=O)c1ccc([N+](=O)[O-])cc1 (stereo not drawn),,inconclusive: -35.1% [inhibitor]
Cc1[nH]c2ccc(Br)cc2c(=S)c1C/C=C/Cl,active: 23.8 µM,
Cc1cccc(NS(=O)(=O)c2ccc3oc(=O)ccc3c2)c1C,,inactive: -12.5%
CCCC(=O)Nc1c(C)n[nH]c1C,active: 26.7 µM,
Cc1ccc2c(=O)cc(C(=O)NCCc3ccc(S(N)(=O)=O)cc3)oc2c1C,"inconclusive: 18.9 µM [inhibitor, single point]",
Cc1cnc(C2OCCO2)c2cccc(N)c12,,inactive: -12.8%
Nc1ccc2nn(-c3ccccc3)nc2c1,active: 21.2 µM,
Cc1ccc(SC(CC(=O)c2ccc(C(C)(C)C)cc2)C(=O)O)cc1 (stereo not drawn),"inconclusive: 29.9 µM [inhibitor, partial curve]",
